Measurements from article PMC8642546.
These are yes or no findings as the source states them, for the method shown. Binding seen in cells or lysates may run through a third protein. Binding can be weak; no strength is given.

Sequences of proteins named here, by UniProt entry; tags and fusion partners are left off. A change or cut given only in a name is not applied to a line headed by its entry.
UniProt P01375: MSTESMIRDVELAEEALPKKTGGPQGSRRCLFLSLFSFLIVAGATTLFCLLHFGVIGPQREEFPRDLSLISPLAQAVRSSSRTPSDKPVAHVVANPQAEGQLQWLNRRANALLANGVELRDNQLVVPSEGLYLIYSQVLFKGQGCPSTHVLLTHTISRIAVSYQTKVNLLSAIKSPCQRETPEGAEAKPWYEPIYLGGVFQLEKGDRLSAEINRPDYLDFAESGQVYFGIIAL
UniProt B7ZBB8: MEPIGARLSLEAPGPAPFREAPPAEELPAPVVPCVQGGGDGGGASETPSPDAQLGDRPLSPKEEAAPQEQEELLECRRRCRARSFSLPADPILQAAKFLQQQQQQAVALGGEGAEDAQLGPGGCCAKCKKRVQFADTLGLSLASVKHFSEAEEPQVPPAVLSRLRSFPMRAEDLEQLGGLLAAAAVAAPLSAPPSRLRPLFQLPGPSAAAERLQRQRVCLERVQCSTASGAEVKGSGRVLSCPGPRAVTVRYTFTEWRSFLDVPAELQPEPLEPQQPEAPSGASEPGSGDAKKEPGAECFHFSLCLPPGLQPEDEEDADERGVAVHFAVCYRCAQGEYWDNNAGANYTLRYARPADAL

Molecular target: FLAG-TNF (UniProt P01375)
Assay: co-IP; HT-29 cells treated with FLAG-TNF, FLAG-TNF/S/Z or FLAG-TNF/CHX/Z for 1 h; lysates precipitated with anti-FLAG beads to isolate complex I; Western blotting; only the target purified

PPP1R3G (protein phosphatase 1 regulatory subunit 3G), endogenous in HT-29 cells (from UniProt B7ZBB8 1-358)
binding: binds
